These results are taken from PubChem BioAssay AID1347423 (Functional Genomics Laboratory (NCATS/FGL), 2020).

In all, about 52,000 sequences went through this assay and about 210 (0.4%) were called active.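 The calls were made as follows: active = gene whose silencing raises cell survival under the drug, median off-target-corrected z-score across its silencing RNAs 2 or more; inactive = the rest.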 The list shows a part of the results.

The nature of the experiment: Resistance to Poly (ADP-Ribose) Polymerase inhibitor: Gene Identification via Genome-wide siRNA Screen. The note with it: mouse BRCA2 R2336H ES cells, olaparib, CellTiter-Glo viability; hits give high values. In outline: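 Genome-wide siRNA screen (3 siRNAs/gene, 20 nM) in mouse ES cells carrying hypomorphic BRCA2 R2336H; olaparib 500 nM added 48 h post-transfection, CellTiter-Glo viability 72 h later. Normalized to plate-median negative control; MAD z-scores, gene median, seed-adjusted.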
For CGCAGCGACCAGCUUUCAATT against Srebf2, the z-score is inactive: 1.46.
Regarding GCUGCUGUGACUUAGAUAATT against Cds2, the z-score was inactive: -1.49.
Next, “GCAAACAAGGUCCUAGUCUTT against 4930465P12Rik”: inactive: 0.488; “GGUCUUCGACACCAUUAACTT against 2510001I10Rik”: inactive: 0.94.
Next, GCAUUUCAGCAGAACAAUATT against Phldb1: inactive: -0.557; GCUGUGAGCGGUGUAAGAATT against Usp20: inactive: -2.54.
For the sequence GGAAAGAUCUCCUAAAAUUTT against Lrp6, the z-score is inactive: 0.0588.
On to GCGCUUACCGAACAACUGATT against Tmprss13, for which the z-score is inactive: -0.00577.
On to GGGAAGCACAAGGUUUAGUTT against Brca1, for which the z-score was inactive: -0.121.
Regarding CCCAUGCUAUCAAUCAUUUTT against Olfr308, the z-score was inactive: 1.26.
For GGAAACACUGAAAAAGAAUTT against Casp2, the z-score is inactive: -0.932.
GGAAAACCUUUUCAGCUUCTT against Nelf: the z-score was inactive: 0.62.
On to GGCCCUAAUGCAUGUGUACTT against Gp9, for which the z-score was inactive: 0.703.
Next, GGAAUUAUAAAAGACCACGTT against Kctd12b: inactive: 0.438.
Next, GGAAUGGUUAGAGUUCUUUTT against Ercc2: inactive: -2.39; GGAGAGUACAGACACUGAGTT against Masp2: inactive: 0.319; GGAAGAUUGCAUUUUGAGATT against Akap3: inactive: 0.395.
“CGUGGUGCCUUUGAAUCUGTT against 9530056K15Rik”: the z-score is inactive: -1.06.
As for “GGGCCUACAUUAUUCAGCATT against 2310032F03Rik”, the z-score is inactive: 0.865.
Turning to GCAAGUAACUACCAGAGUATT against Gtl3, the z-score is inactive: -1.4.
For the sequence GGAUGACGGUAAAAUGUUUTT against Hnrpdl, the z-score is inactive: 0.494.
For GCAAUCAUUGAAUCCACUCTT against Spag9, the z-score was inactive: -0.615.
As to GCAGGCAAGGUAUACUUGATT against Cbfb, the z-score was inactive: 0.137.
For the sequence “GGUGUUGAUGCUGAAAACUTT against 5730405M13Rik”, the z-score is inactive: -0.453.
As for GCUAAGCGGAAUGCACUCGTT against Cxcl5, the z-score was inactive: -0.844.
“CCCUACAUGGAUGAGAACUTT against 1110007F05Rik”: the z-score was inactive: -0.857.
As to GGAUUUCCUUGGUUCUUUUTT against Mylip, the z-score is inactive: 0.151.
For GGCUUGAUUUCAACCUUGUTT against Atic, the z-score was inactive: -0.0503.
Next, “CGACAGAGUGAAAAUUAAGTT against D12Ertd771e”: inactive: 0.39.
Consider GGUUUAUAGGGAAAGAUUUTT against Pde7b, for which the z-score was inactive: -0.944.
Next, GGGCUCAUGGGAAUUUCUUTT against Vill: inactive: -2.6; GGCUGGCUAUAAGAAAAAATT against Mrpl35: inactive: 0.12.
Next, CGGUAUUUCAUCCUGGAUATT against AA960558: inactive: -0.142.
Next, GGCUAUGCAGAUGGUACCUTT against Vil1: inactive: -0.536; “GCAGGUUAUGGUCAUAUUUTT against 6820429M01”: inactive: -0.257; “GCGACUGUUUCUAUCCCAATT against 1500026D16Rik”: inactive: 1.57.
As to GGUAUCUACACCAAACUUATT against Klk5, the z-score is inactive: 1.04.
Consider GGAAUAAAGAUUCCUCACATT against Epdd1, for which the z-score was inactive: -0.902.
With GGCCUCUUUUGGUAUUCCATT against Zfp42, the z-score is inactive: -0.463.
As to GGAAAUCAGUUUUCCUGGATT against Olfr649, the z-score is inactive: -0.923.
In the case of CGACUUCAUGAAAUACCAATT against Ptpla, the z-score was inactive: -0.142.
As to CCUACUUGUUUUGGGCUGGTT against Olfr1384, the z-score was inactive: -0.266.
Next, “CCCAUUUGGAUUCACUAACTT against C630028F04Rik”: inactive: 1.08.
Take GGAUGGAUGUUUGCAUAAATT against Msx2: the z-score was inactive: 0.986.
For “GGUAAACGGCUUUUCUUAUTT against 3010021M21Rik”, the z-score is inactive: 1.33.
As for CCACCGUUUCGUACAUAAATT against Gcat, the z-score was inactive: -0.305.
In the case of “GCUGAUCUAAGGCUCAAAATT against F830005K03Rik”, the z-score was inactive: -0.743.
Next, GCCGAGACAAUGGAAAUAATT against Phtf1: inactive: 1.22.
Next, CCUUGGAUGCCUUUUACUGTT against Olfr1428: inactive: 0.797; GGGUUGCCAUCGAGACAAGTT against Rdbp: inactive: 0.577; “GGACAACUUCCUAGGGCUCTT against D9Ertd280e”: inactive: -0.454.
CGCACUUCAAGUUUAAUUGTT against Mmab: the z-score is inactive: 1.02.
In the case of GGUGAAAUCAGAAUUUGCGTT against Defb23, the z-score was inactive: -0.132.
As to GGUGUGGCUGUUCUGAUGATT against Olfr771, the z-score is inactive: -1.93.
For CGACGACUAGACCUCAUCUTT against Dtx4, the z-score is inactive: -0.0371.
Next, GGUUAUAAAAAACAACCUGTT against Cpne3: inactive: 0.0568; GGUCUCAGAGUACAUUUCCTT against Pde4a: inactive: -0.167; GUUGUUGCUGGACUUCUUGTT against Olfr1443: inactive: -0.0381.
For CAUAAUCUGCACUACAAGCTT against Olfr309, the z-score is inactive: -0.764.
Turning to GCAUGUGCUAUAAUGAUCATT against LOC432723, the z-score is inactive: -0.698.
Regarding GGGAGAACCUGGCAUUCCUTT against Col23a1, the z-score was inactive: -1.59.
On to GGACAGACGGUCUUCUAUATT against Znrd1, for which the z-score is inactive: -1.72.
On to GGUAGAACAGUGCUUAAAGTT against BC027231, for which the z-score is inactive: -0.0219.
As for CCACUAAAAUUGACAAUGATT against Plxna1, the z-score is inactive: 0.344.
Regarding GAAUGUCAGAACCAUCCUCTT against Cdc34, the z-score was inactive: 1.45.
Regarding GGAUAUCCGUGAGAUUUCATT against Timm10, the z-score was inactive: -0.931.
Consider GCCUUCGAUAAAGUUUUCCTT against Sult2a2, for which the z-score is inactive: 0.593.
Regarding GGCAUUUGAGUGGACUGUUTT against C86302, the z-score was inactive: -2.3.
Next, CCAAUAAUGGAAGAACCUCTT against Zzz3: inactive: -0.575; GGAUGUACCCUUAAUAAACTT against Gabra5: inactive: 0.36; GGAGAUCUUAGAGAAAUUATT against Pak1: inactive: -0.0368.
Next, GCAGAUGAGAGGAUCCUUATT against Nfatc2: inactive: 0.0866.
As for “CCGAACUUUCAUUCAAUAUTT against 6720456H20Rik”, the z-score is inactive: 0.555.
With GCUGCAUGAAGGUGCUAAATT against Pcmt1, the z-score is inactive: 1.09.
Next, CGACUCAACUUCUCCCAUGTT against Pklr: inactive: 2.93; GGUGUACAGCUGUGACCUGTT against Chn1: inactive: -1.78; GCACCUUCAACCAACAAGGTT against Zcsl2: inactive: -0.466.
Next, CCCAACCUCAAUGAAACUATT against Arfip2: inactive: -0.517.
Next, “GGAGGACUCAGCACUCUUUTT against E130311K13”: inactive: -0.331; “CCUUUGUGUCCUAACGGUGTT against 2410129E14Rik”: inactive: 0.0419; “GGAAUUUUCUGGAAAUCCATT against 4432405B04Rik”: inactive: 0.1.
In the case of GGAACAAUCACUCUUUGGCTT against Olfr123, the z-score was inactive: 0.974.
In the case of GGAAUUGCUGAGGCACUUCTT against Nfkbia, the z-score is inactive: -1.05.
Next, GGAGGUUUUCCGAAGUAUUTT against Pnpt1: inactive: 0.149; GGAAUCUGUGUAUAAUCUUTT against Dst: inactive: -0.0108.
For the sequence GCACUAAUGACUACAUCCGTT against Cklfsf4, the z-score was inactive: 1.42.
In the case of GGAGAAAUCCGUCUGACCATT against Pcdhb12, the z-score was inactive: 0.189.
In the case of GGCUGUAGUCAUAAGCACUTT against Ppp1r11, the z-score is inactive: -0.675.
Take GGAUAUCCUUUCAAUAGAATT against Mcf2: the z-score was inactive: 0.0729.
As for GGAAGAACAAUUGUGGCAUTT against Abca9, the z-score was inactive: -0.319.
Consider GGAAGACAAUGAACUUGUUTT against Loxhd1, for which the z-score was inactive: -1.17.
“CCUAAGGCAAUCCCUAUUGTT against 2210415K24Rik”: the z-score is inactive: -0.439.
Next, GCAACAAGUUCCCAGUAUCTT against Dnahc1: inactive: -2.55; GGCAUUGUAACCCUUGUAATT against Zfp187: inactive: -0.901; “GGAAGCUGGCAAGUUUAUGTT against 1700026D08Rik”: inactive: -0.329.
In the case of CCCAUGGAACGGGAAGCUUTT against Serpinb9d, the z-score is inactive: 0.36.
Next, GGACAUUGACAAAAUCAUCTT against Sec14l2: inactive: 0.556.
Next, CCUCCUAAUAUGUUAAUACTT against Gmfb: inactive: -1.44; GCCAAACACUCGACUCUAATT against LOC432615: inactive: -0.086; GGUUACCCAACUUGAAGGATT against BC055447: inactive: -1.36.
Consider GGUUCUAUGUUGACAAUCATT against BC010311, for which the z-score is inactive: 0.142.
Take GGUACUCUCAUUAUCUUUCTT against Tlr8: the z-score was inactive: -0.073.
As for GGGUGAUAGCAAGACACAGTT against Olfr720, the z-score is inactive: 0.646.
Next, GGUUCCUUCGUGAAUGUCATT against Glp1r: inactive: -1.47.
